Measured values taken from patent US20140127681A1.
These are yes or no findings as the source states them, for the method shown. Some entries that bind do so weakly or less than the wild type.

Chains of the proteins cited; added tags and fusions are not shown.
UniProt P0CE48: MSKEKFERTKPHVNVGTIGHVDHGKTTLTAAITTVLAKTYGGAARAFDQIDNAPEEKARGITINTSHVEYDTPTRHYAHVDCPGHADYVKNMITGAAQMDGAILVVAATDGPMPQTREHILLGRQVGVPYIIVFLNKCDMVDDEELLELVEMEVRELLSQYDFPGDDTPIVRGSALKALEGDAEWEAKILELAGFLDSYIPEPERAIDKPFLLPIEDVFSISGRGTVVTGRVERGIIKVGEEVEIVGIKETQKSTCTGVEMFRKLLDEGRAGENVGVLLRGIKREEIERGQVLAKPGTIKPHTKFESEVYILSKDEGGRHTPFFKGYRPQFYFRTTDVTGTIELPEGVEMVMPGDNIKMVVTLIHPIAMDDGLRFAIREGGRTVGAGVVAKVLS
UniProt P0A6P1: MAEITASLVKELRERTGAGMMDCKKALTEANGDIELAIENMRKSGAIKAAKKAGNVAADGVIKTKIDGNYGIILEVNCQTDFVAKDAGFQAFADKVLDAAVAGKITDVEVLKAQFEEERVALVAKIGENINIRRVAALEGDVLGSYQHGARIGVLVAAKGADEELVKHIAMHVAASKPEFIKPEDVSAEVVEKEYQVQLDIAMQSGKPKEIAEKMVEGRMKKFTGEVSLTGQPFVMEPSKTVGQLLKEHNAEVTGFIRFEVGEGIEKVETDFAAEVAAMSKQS

Legend:
[1] = target: EF-Tu (Example 9, purified by Ni-NTA affinity chromatography) (E. coli) (UniProt P0CE48); assay: EF-Tu mixed with EF-Ts (1:1.1) at 37 C for 20 min, then Sephadex 75 gel filtration
[2] = target: 6-His tagged ACP-EF-Tu (EF-Tu with an N-terminal histidine tag and a C-terminal AcpS tag) (E. coli) (UniProt P0CE48); assay: nickel-NTA capture by the His tag of dye-labelled EF-Tu, eluted as a complex with EF-Ts
[3] = target: 6-His tagged ACP-EF-Tu (EF-Tu with an N-terminal histidine tag and a C-terminal AcpS tag) (E. coli) (UniProt P0CE48); assay: co-incubation at 37 C for 30 min with 1.2 molar excess of EF-Ts, then Sephadex 75 gel filtration
[4] = target: cleaved native EF-Tu (E. coli) (UniProt P0CE48); assay: as above

Measured: binding

Elongation Factor-Ts (EF-Ts) (from UniProt P0A6P1 1-283)
binds: all assays above
